Out of some 52,000 sequences screened, about 210 (0.4%) were called active.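 Rule for the calls: active = gene whose silencing raises cell survival under the drug, median off-target-corrected z-score across its silencing RNAs 2 or more; inactive = the rest.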 This is one part of the list.

For 103 sequences, z-score results are on record in PubChem BioAssay AID1347423 (Functional Genomics Laboratory (NCATS/FGL), 2020).

The assay can be described thus: Resistance to Poly (ADP-Ribose) Polymerase inhibitor: Gene Identification via Genome-wide siRNA Screen. The settings on record: mouse BRCA2 R2336H ES cells, olaparib, CellTiter-Glo viability; active compounds read high. The essentials:
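Mouse BRCA2 R2336H ES cells were reverse-transfected with siRNA (20 nM final), treated at 48 h with 500 nM olaparib, and read by CellTiter-Glo after 72 h. Scores: MAD-based z per siRNA, median per gene, seed off-target correction.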
In the case of “GGAUAUACCCUGUUCUAGGTT against 4930572J05Rik”, the z-score was inactive: 0.139.
GGCUGGUAUUACAUCUAUCTT against Myohd1: the z-score is inactive: 0.58.
As for GAAUGCUCUGAGACUUUUATT against Igsf7, the z-score is inactive: 0.732.
For CCUUUAAUUUCACUGUUACTT against Gabarapl2, the z-score is inactive: 0.915.
Under “GGCCUGACGCAUUAGCAUUTT against 1700039D13Rik” stands inactive: 1.45.
In the case of “CCAGACUCAUAAUGUUAAUTT against 9430077A04Rik”, the z-score was inactive: -1.1.
Turning to CCUGCCUGACACAUUGUGATT against Ntan1, the z-score was inactive: -0.354.
Then GGUUGUAAGUGUCUUAAAGTT against Pdcd6ip, with inactive: 0.356; and CGAUCAAGGAUCUUAAGAUTT against Aox4, with inactive: -0.187; and “GGCUGCAUGUGCUCUGUUATT against 9830137M10Rik”, with inactive: -0.327.
Take GGAAACUGGCAGUUUGGGUTT against Slc35a1: the z-score was inactive: 1.23.
As to “GCGUGUGUGCCUCUACUUGTT against 9130210N20Rik”, the z-score is inactive: 0.21.
Then CGGCCGUAUGAAGAAGAUATT against Rpel1, with inactive: 0.677; and GGCUAGCCAUCCAAAAAGATT against BC027072, with inactive: -0.561.
With GGUGGUAAUUGGUGUGGCATT against C80638, the z-score is inactive: 1.39.
Regarding “GCCGUUUGUACCUUGUCAGTT against 4933430I17Rik”, the z-score was inactive: -0.347.
For CCAAUAACAGGAUUGAGAATT against Tnfrsf8, the z-score was inactive: -0.969.
Then “GCUCAUUAACGAGAAAGUGTT against 2610528J18Rik”, with inactive: 1.14; and GGGAAAAAGAAAAGGAAAATT against Dhx15, with inactive: -0.426; and “GGAGAUAAAGCUGACACUGTT against 5830416A07Rik”, with inactive: 1.17.
Turning to GGAGAACUUCCUAUACUAUTT against Apobec2, the z-score is inactive: 0.216.
On to “CCCACCUAUGGGCUAUUAUTT against 5730403B10Rik”, for which the z-score is inactive: -3.2.
Then GCCAUGACCGUUCGUGAGUTT against Jmjd2a, with inactive: 0.149; and GGAUACUCACUGCACAAGGTT against Slc9a8, with inactive: -0.568.
As to “GCAUCACCAAGACUCGGAATT against B230369L08Rik”, the z-score is inactive: 0.669.
Turning to GGAGCUGUUUCAGGUAUCUTT against Tcam1, the z-score was inactive: -0.211.
In the case of GGAGCGAAUCUUAAAGAACTT against Gspt1, the z-score was inactive: -2.24.
As for GGCACAUACGCUAUGAAGCTT against Mrpplf4, the z-score is inactive: -0.535.
GGAGGCUCUACUUUUGUAGTT against Olfr611: the z-score was inactive: 1.34.
As to GCCUACAACCGCUUCUUGGTT against AA409316, the z-score is inactive: 0.355.
Then CCUAUUCAUCAUAACUCAUTT against Tdo2, with inactive: -1.42; and GCUUGAUCCGAUUAGCAGATT against BC062185, with inactive: -1.61.
Then GGUCGAAAUGAUCUCCAACTT against Poli, with inactive: -2.19.
Under GGAGAACAUGGAGACUAUUTT against Ramp1 stands inactive: -0.371; under GGGAAGAAAAUCAAACUCATT against Fabp1, inactive: 0.383.
Consider “GCAAAUGACUUCCAACAAUTT against 1500040F11Rik”, for which the z-score was inactive: 0.798.
In the case of GGAAAGAGUCAUAAUUGAUTT against Adarb2, the z-score is inactive: 1.66.
Under “GGUACAGUUAUUGAAGUGATT against 5730427N09Rik” stands inactive: -2.2; under GCAUGAUUACCCAUUUCAATT against Tax1bp1, inactive: 0.267.
Regarding CGAAGUGGUUACAGAAUCUTT against BC048546, the z-score is inactive: -0.173.
Under GGUGUAGAUGGAUUUCAUUTT against Kcmf1 stands inactive: -0.703.
Take “GGAACUGAACAAGAUUUCUTT against 1700129C05Rik”: the z-score is inactive: -0.721.
As for GGAUUCAAGUUCUCACCGATT against Serpina6, the z-score was inactive: -0.266.
Under GGGAGUUACAGCGGUAUGUTT against Krt1-9 stands inactive: -2.03.
Then “GUUGAUGGAAACCAUGGAATT against D14Ertd668e”, with inactive: 0.8.
Consider GGUAGCACAUUCGGAUAAATT against Vapa, for which the z-score was inactive: 0.135.
Then GGUUAUCAGAAAUGUGUCCTT against Chrnb3, with inactive: 0.139.
With GCUGAUCAACUACUUGAAUTT against Sfrs12, the z-score was inactive: 1.42.
CUGAGGUCUCUCAUUACCATT against Olfr69: the z-score was inactive: -1.79.
Take GGACCCAGUUUUCCCUUGATT against Insig2: the z-score was inactive: 0.69.
Then GGUGGUAUCCCUAAAGGUGTT against Pus1, with inactive: -1.22; and GUCUUUGUUUUGUUGCUUGTT against Olfr1232, with inactive: -0.0902; and “CCUCGAGUCACCAACAUCGTT against Simp-pending”, with inactive: 0.524.
Turning to CCUAAAAUCCUAGACCUUUTT against Pank1, the z-score is inactive: -0.566.
Under GCACUAGGCGAGUUGUCAUTT against Rnase4 stands inactive: 0.987; under GGCAAAUUAUUAGUACAGUTT against Gabpa, inactive: -0.955.
As for CGAAGAUCUUAUCAGUAUATT against Cdh7, the z-score is inactive: 0.43.
Regarding UUGGAAGUGGCCAUGUAGGTT against LOC434459, the z-score is inactive: -1.15.
In the case of GGAAGUGGAAUCCUACAAGTT against Celsr2, the z-score is inactive: -0.254.
Under “GCCCUUACCGAAGAAUUAATT against 2900060P06Rik” stands inactive: 0.451.
In the case of CCUACAACUAUAAAAGAUGTT against Sp3, the z-score was inactive: -0.515.
GCCACUCACAUUAAAUUACTT against Mthfd1: the z-score is inactive: -0.481.
GCUAAUAACUUUUCAGUGATT against Olfr381: the z-score was inactive: 1.01.
With GGACGUGAGACUUCUUCAGTT against Prr3, the z-score is inactive: 1.06.
Take “GGCAACUUAGGAGUUAGACTT against 2610528A17Rik”: the z-score was inactive: 0.957.
Regarding CCUUUAAUACACUCUUCAATT against Cyp2a12, the z-score was inactive: 0.607.
As for GGCCAGUGAUGCUGUAGUUTT against Sema6c, the z-score was inactive: -2.66.
Take CCACUUUCAACUUUCCGCATT against Fgd5: the z-score is inactive: 0.489.
As to CCUGCAAUACCUACUACCATT against Prss32, the z-score was inactive: -0.173.
For GGCAGUAGACACAAACAGATT against Plxdc2, the z-score is inactive: 0.571.
For “GGAUCAGAACUCGUUCCCGTT against 1500011J06Rik”, the z-score is inactive: -0.161.
Then GGUGUCAGAGUUAAGACAATT against Myocd, with inactive: 0.668; and “GCAGCAGUUAAACAACCUUTT against 4933434L15Rik”, with inactive: -0.538; and GCUCUAGCAACUAAGCGCATT against LOC382109, with inactive: -0.0899.
Take GCUUUGUUUGAAAAUGCGATT against BC002230: the z-score was inactive: 1.31.
Under GGUCAAAGGAAAAAAAUGGTT against Zfp30 stands inactive: 0.618.
Under “GCCCACAUUUGUAUUACUUTT against 9530020D24Rik” stands inactive: -1.7.
Consider CCUCCUUUAAGGAAAACCCTT against Alb1, for which the z-score is inactive: 0.789.
On to GGCACUCGACAGAACAACUTT against Scamp3, for which the z-score is inactive: -0.981.
On to GGACCAGAUAACUGCCAAATT against Kif5c, for which the z-score is inactive: -1.26.
As for GACAAGACAAGUUUUGGUATT against Elmo1, the z-score is inactive: -0.497.
In the case of GGUUUUUACAAUCAUGAUGTT against Fert2, the z-score is inactive: 0.665.
GGAAAUUAAACAGAAACAGTT against Ube2j2: the z-score is inactive: -0.428.
For the sequence GCCUAUCGUCCAGAUUAUCTT against Senp1, the z-score was inactive: -0.394.
Under GGACAAAUUGUAUGGCGAATT against Nedl2 stands inactive: 0.434; under GCUUCGACACUUUAUUUCUTT against Cnp1, inactive: 1.82.
GGCUCAAGGUUUUCUCUACTT against Olfr710: the z-score was inactive: 0.232.
In the case of GGUACCUUGCCUGACAAACTT against Ids, the z-score is inactive: -0.214.
On to GGACCAUAUGGACACAAAGTT against Col10a1, for which the z-score is inactive: 0.609.
With CGGUCCAGGAAGAAUGUUUTT against Bckdhb, the z-score was inactive: -1.25.
Turning to GGAAUACCUCCACCUAUGGTT against Tcerg1, the z-score is inactive: 0.715.
GGAACAGAAGGGUAAAGGGTT against Gkn1: the z-score is inactive: -1.51.
In the case of GCAACAGAAGAUAACUCAATT against ORF28, the z-score is inactive: 0.108.
Under “GGAUAAGACUCGAUGGAUGTT against D030051N19Rik” stands inactive: 0.317; under GCUCCUUUGGUUCAACAUCTT against Olfr635, inactive: -0.403.
Consider GGCAGCAGCUACUCCUAUATT against Krt2-6a, for which the z-score is inactive: -0.00281.
For GGCUGGGAAUUUUACAGUATT against Gpr3, the z-score is inactive: -0.769.
As for GGCAGCAUAGACUCUGACATT against Rag2, the z-score is inactive: -1.34.
Take “GGGAAUGAAGAACUUCCUCTT against 4432404J10Rik”: the z-score was inactive: -0.716.
On to GGAUCGAAGUAGAAUGUAUTT against Cpeb2, for which the z-score was inactive: -2.61.
As for “GCGACUUAGGGAAAGAUACTT against 1700020C11Rik”, the z-score is inactive: 0.796.
In the case of GAAUGUUCCUCAUGUCGUCTT against Olfr64, the z-score is inactive: -0.461.
For the sequence GCUGCUUACUAUCAGAAAATT against Stx12, the z-score is inactive: 0.349.
